# Screen size: about 310,000 compounds; about 17,000 (5.5%) were called active. The inconclusive results got no clear call from the source; some entries with a clear call stand among them for comparison. Calls follow the shape of the dose curve; as a rule, active = well fitted inhibition curve with a large enough effect; inconclusive = small, poorly fitted or top-dose-only effect, or effect the other way; inactive = no such curve, though single readings can be large or run the other way. Where the call is inconclusive, the potency comes from a doubtful curve fit.
# Chains of the proteins cited; added tags and fusions are not shown. Lines headed by an entry give the natural chain unless they say otherwise; changes in a name come on top.
# UniProt P51450: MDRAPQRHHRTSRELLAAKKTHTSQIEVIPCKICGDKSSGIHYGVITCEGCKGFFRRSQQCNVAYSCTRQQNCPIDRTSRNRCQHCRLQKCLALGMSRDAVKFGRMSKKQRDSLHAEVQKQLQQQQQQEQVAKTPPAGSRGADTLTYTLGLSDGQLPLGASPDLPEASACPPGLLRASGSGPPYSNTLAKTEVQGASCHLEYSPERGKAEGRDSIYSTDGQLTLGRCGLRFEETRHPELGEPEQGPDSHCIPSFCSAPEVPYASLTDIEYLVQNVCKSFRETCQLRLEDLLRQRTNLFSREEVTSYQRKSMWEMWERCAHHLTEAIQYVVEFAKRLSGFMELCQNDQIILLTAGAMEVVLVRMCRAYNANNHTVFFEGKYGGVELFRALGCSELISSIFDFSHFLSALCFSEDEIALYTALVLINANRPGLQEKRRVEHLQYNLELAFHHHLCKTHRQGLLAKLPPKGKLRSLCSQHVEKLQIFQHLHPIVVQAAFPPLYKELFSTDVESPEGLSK
# Biological target: Nuclear receptor ROR-gamma (Mus musculus) (UniProt P51450)
# Assay: qHTS for inhibitors of ROR gamma transcriptional activity; also: nearly all actives have a fitted effect of over 60% in size
# Details: Drosophila S2 Gal4-RORgamma UAS-luciferase reporter, 20 h; activity change, negative = inhibition: at 53.6 µM (top of the series)
# Procedure, shortened: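 Luminescence from a UAS-regulated Photinus luciferase reporter in stably transfected Drosophila Schneider cells is measured; decreased signal marks ROR gamma inhibition. Fusion expression is induced by 700 uM copper sulfate for 20 hr.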
# % is scaled to controls: 0 for no effect and ±100 for the full control effect; potency is read from the fitted curve at half-maximal effect.
SMILES,Potency,"activity change, negative = inhibition"
CCc1cc(C(=O)c2ccc(OC)cc2)c(NC(=O)CCC(=O)O)s1,"inconclusive: 35.5 µM [activator, single point]",–
N#Cc1ccc(Cn2c(-c3ccc(F)cc3)noc2=O)cc1,inactive,–
O=C(O)/C=C\C(=O)Nc1ccccc1F,inactive,–
Cc1cccnc1NC(=O)Nc1ccc(F)cc1,"inconclusive: 11.2 µM [activator, partial curve, poor fit]",–
CCOC(=O)c1ccc(NC(=O)Cc2cccs2)cc1,"inconclusive: 15.8 µM [activator, partial curve]",–
O=C(CN1CCC(O)(c2cccc(F)c2)CC1)NCCc1c[nH]c2ccccc12,"inconclusive: 12.6 µM [activator, partial curve, poor fit]",–
CC1CCN(C(=O)CSc2nnc(-c3ccc(S(=O)(=O)N4CCOCC4)cc3)n2C)CC1,"inconclusive: 31.6 µM [activator, single point]",–
Oc1c(C=C2N=c3ccccc3=N2)sc(=S)n1-c1ccc(F)cc1,"inconclusive: 28.2 µM [inhibitor, single point]",–
COC(=O)C(/C=C/C(C)Cc1cc(Br)cc(OCc2ccccc2)c1OC)OCc1ccccc1 (configuration not stated),–,inactive: 1.12% [at 10 µM]
CCCCOC(=O)c1ccc(NC(=O)c2c(OC)cccc2OC)cc1,"inconclusive: 7.08 µM [activator, partial curve]",–
O=C(N[C@@H](Cc1ccccc1)C(=O)OCc1ccccc1)c1nc[nH]c1C(=O)N[C@@H](Cc1ccccc1)C(=O)OCc1ccccc1,active: 10 µM,–
COc1ccc(-n2c(=O)c3ccccc3n(Cc3ccccc3F)c2=O)cc1OC,inactive,–
Cc1ccc(/C=N/Nc2cn[nH]c(=O)n2)o1,"inconclusive: 35.5 µM [inhibitor, single point]",–
O=C(CCc1nc2ccccc2s1)Nc1cccnc1,"inconclusive: 20 µM [activator, single point]",–
CC(C)Cn1c(-c2ccccc2F)n[nH]c1=S,active: 5.62 µM,–
COc1ccc(N2CCN(C(=O)c3ccc(CNS(=O)(=O)c4ccc(C)cc4)cc3)CC2)cc1,"inconclusive: 14.1 µM [activator, single point]",–
Cc1ccc(S(=O)(=O)N(C)Cc2nc(-c3ccc(Br)cc3)no2)cc1,"inconclusive: 35.5 µM [activator, single point]",–
O=C(CC1CCCC1)Nc1nc2ccccc2[nH]1,active: 8.91 µM,–
CCC(C)NC(=S)NNC(=O)c1ccncc1 (configuration not stated),active: 3.16 µM,–
Cc1noc(C)c1C(=O)N1CCC2(CC1)CCN(c1cccc(-c3ccccc3)c1)CC2,"inconclusive: 11.2 µM [activator, partial curve]",–
CC(C)(C)c1cc2cccnc2n1Cc1cccc(Cl)c1,active: 2.24 µM,–
CCn1c(=O)cc(OCC(=O)N(C)C2CCCCC2)c2ccccc21,inactive,–
Cc1ccn2c(C(=O)c3ccc(Cl)cc3)cnc2c1,"inconclusive: 0.282 µM [activator, full curve, poor fit]",–
CS/C(N)=N/C(=S)Nc1cccc(Cl)c1,"inconclusive: 1.58 µM [inhibitor, full curve, poor fit]",–

# Filtered by structure: the compounds so far containing a COOH group
SMILES,Potency,"activity change, negative = inhibition"
CCc1cc(C(=O)c2ccc(OC)cc2)c(NC(=O)CCC(=O)O)s1,"inconclusive: 35.5 µM [activator, single point]",–
O=C(O)/C=C\C(=O)Nc1ccccc1F,inactive,–

# Full records as entered above.
# N#Cc1ccc(Cn2c(-c3ccc(F)cc3)noc2=O)cc1 is listed with Potency: inactive
# CCOC(=O)c1ccc(NC(=O)Cc2cccs2)cc1 is listed with Potency: inconclusive: 15.8 µM [activator, partial curve]

# Carrying on.

SMILES,Potency,"activity change, negative = inhibition"
Cc1ccccc1SCc1noc(C(=O)NC(C)C)c1C(=O)O,"inconclusive: 35.5 µM [inhibitor, single point]",–
CCc1ccc(N=C2NC(=O)/C(=C/c3ccc(OCC(=O)O)c(OC)c3)S2)cc1,"inconclusive: 0.891 µM [activator, partial curve, poor fit]",–
O=C(CN1CCOCC1)Nc1ccc2c(c1)OCO2,inactive,–
C=CCn1c(COc2ccc(Cl)cc2)nnc1SCC(=O)NCC(=O)OCC,active: 11.2 µM,–
Cc1ccc(C(=O)NC(=S)Nc2ccccc2C)cc1,"inconclusive: 15.8 µM [inhibitor, single point]",–
COc1cc2c(cc1NC(=O)CN1CCN(S(=O)(=O)c3ccc(F)cc3)CC1)oc1ccccc12,"inconclusive: 0.447 µM [inhibitor, partial curve, poor fit]",–
COc1cc2c(cc1OC)CN(CCOc1ccc(Br)cc1)CC2,inactive,–
CC1CCN(c2ccccc2NC(=O)c2ccc([N+](=O)[O-])o2)CC1,inactive,–
CC(=O)N1N=C(C)CC1c1ccc(OCc2ccccc2)cc1 (configuration not stated),"inconclusive: 11.2 µM [activator, partial curve]",–
O=C(CN(C(=O)CCC(=O)Nc1nccs1)c1cccc(F)c1)NCc1ccc2c(c1)OCO2,"inconclusive: 35.5 µM [inhibitor, single point]",–
CCCOc1ccc(/C=N/Nc2ccccc2[N+](=O)[O-])c(O)c1,active: 7.08 µM,–
Cc1cc(/C=N/NC(=O)c2ccc(O)cc2)c(C)n1C1CC1,active: 12.6 µM,–
CCN(CC)C(=O)CSc1nc2c(sc(=S)n2-c2ccccc2)c(=O)n1Cc1ccco1,"inconclusive: 35.5 µM [activator, single point]",–
COc1ccccc1CCc1nnc(CCC(=O)NC(C)Cn2nc(C)cc2C)o1 (configuration not stated),inactive,–
CC(NCc1nc2ccccc2n1C)C12CC3CC(CC(C3)C1)C2 (configuration not stated),active: 5.01 µM,–
CN(C)/C=C(\C#N)C(N)=C(C#N)C#N,inactive,–
CCc1cc(C(=O)c2ccc(OC)cc2)c(NC(=O)CN2CCCCC2)s1,active: 7.08 µM,–
NC(=S)Nc1nc2ccccc2[nH]c1=O,"inconclusive: 15.8 µM [inhibitor, single point]",–
CCC1CCCCN1C(=O)CSc1nnc(-c2cccs2)o1 (configuration not stated),"inconclusive: 1 µM [activator, partial curve]",–
O=C(COC(=O)c1cccnc1Cl)c1cccc(Cl)c1,"inconclusive: 25.1 µM [activator, single point]",–
CS(=O)(=O)Nc1cccc(-c2ccc3ncnc(NCc4cccnc4)c3c2)c1,"inconclusive: 14.1 µM [activator, partial curve]",–
COc1ccc2nc(NC(=O)Nc3ccccc3)sc2c1,"inconclusive: 10 µM [inhibitor, partial curve]",–
COc1cccc2cc(C(C)N(CCCN3CCOCC3)C(=S)Nc3cc(C)cc(C)c3)oc12 (configuration not stated),"inconclusive: 22.4 µM [inhibitor, single point]",–

# Reference: PubChem BioAssay AID2551 (National Center for Advancing Translational Sciences (NCATS), 2010)
